The record followed here is patent US20050187221A1, “Method of treating ischemia reperfusion injury” (Japan Tobacco Inc., priority 2003, published 2005).

Molecules are shown by their SMILES. Counter-ions that a name gives are not always drawn.

The data set concerns hearts of Sprague-Dawley rats (myocardial ischemia reperfusion injury). In words: Cardiac function of isolated Langendorff-perfused rat hearts after 30 min global ischemia and 60 min reperfusion. It counts as ex vivo. The note with it: 10 mg/kg intraperitoneally. As for the experimental part:
Sixteen Sprague-Dawley rats (300 g, male) were divided into a control group (“C group,” n=8) and a group administered (−)-ethyl N-{3,5-dichloro-2-hydroxy-4-[2-(4-methylpiperazin-1-yl)ethoxy]benzoyl}-L-phenylalaninate dihydrochloride (“J group,” n=8). All rats were anesthesized by intraperitoneal injection of sodium pentobarbital (50 mg/kg), and either (a) 0.5 mL of saline (C group) or (b) 10 mg/kg of (−)-ethyl N-{3,5-dichloro-2-hydroxy-4-[2-(4-methylpiperazin-1-yl)ethoxy]benzoyl}-L-phenylalaninate dihydrochloride dissolved in 5% mannitol (J group) was administered intraperitoneally to the rats. Anticoagulation was ensured by the intraperitoneal administration of 200 USP units of heparin. […]
After stabilization, heart rate (HR), left ventricular developed pressure (LVDP), maximum dP/dt (maximum dP/dt), and coronary flow (CF) were measured with LV diastolic pressure stabilized at 10 mm Hg. […] HR, LVDP, maximum dP/dt, and CF were continuously measured after reperfusion and analyzed using a Polygraph System (Nihon Kouden, Japan).
There were significant differences between the two groups, however, following global ischemia and reperfusion. FIGS. 1 and 2 depict the cardiac function (as measured by LVDP and maximum dP/dt) after ischemia reperfusion between the C and J groups. For the following parameters, data are expressed as mean±standard error of the mean (SEM). […]

As to `CCOC(=O)[C@H](Cc1ccccc1)NC(=O)c1cc(Cl)c(OCCN2CCN(C)CC2)c(Cl)c1O` [(−)-ethyl N-{3,5-dichloro-2-hydroxy-4-[2-(4-methylpiperazin-1-yl)ethoxy]benzoyl}-L-phenylalaninate dihydrochloride], the “CF or HR before ischemia reperfusion, J group versus C group” value is “no significant difference”; the “cardiac function (LVDP and maximum dP/dt) before ischemia reperfusion, J group versus C group” value is reported as “no significant difference”.
